This is an account of results in patent US20260226115A1.

Protein sequences, listed by entry. Tags and fused reporters are not part of them. Lines headed by an entry give the natural chain unless they say otherwise; changes in a name come on top.
UniProt Q8VBX6: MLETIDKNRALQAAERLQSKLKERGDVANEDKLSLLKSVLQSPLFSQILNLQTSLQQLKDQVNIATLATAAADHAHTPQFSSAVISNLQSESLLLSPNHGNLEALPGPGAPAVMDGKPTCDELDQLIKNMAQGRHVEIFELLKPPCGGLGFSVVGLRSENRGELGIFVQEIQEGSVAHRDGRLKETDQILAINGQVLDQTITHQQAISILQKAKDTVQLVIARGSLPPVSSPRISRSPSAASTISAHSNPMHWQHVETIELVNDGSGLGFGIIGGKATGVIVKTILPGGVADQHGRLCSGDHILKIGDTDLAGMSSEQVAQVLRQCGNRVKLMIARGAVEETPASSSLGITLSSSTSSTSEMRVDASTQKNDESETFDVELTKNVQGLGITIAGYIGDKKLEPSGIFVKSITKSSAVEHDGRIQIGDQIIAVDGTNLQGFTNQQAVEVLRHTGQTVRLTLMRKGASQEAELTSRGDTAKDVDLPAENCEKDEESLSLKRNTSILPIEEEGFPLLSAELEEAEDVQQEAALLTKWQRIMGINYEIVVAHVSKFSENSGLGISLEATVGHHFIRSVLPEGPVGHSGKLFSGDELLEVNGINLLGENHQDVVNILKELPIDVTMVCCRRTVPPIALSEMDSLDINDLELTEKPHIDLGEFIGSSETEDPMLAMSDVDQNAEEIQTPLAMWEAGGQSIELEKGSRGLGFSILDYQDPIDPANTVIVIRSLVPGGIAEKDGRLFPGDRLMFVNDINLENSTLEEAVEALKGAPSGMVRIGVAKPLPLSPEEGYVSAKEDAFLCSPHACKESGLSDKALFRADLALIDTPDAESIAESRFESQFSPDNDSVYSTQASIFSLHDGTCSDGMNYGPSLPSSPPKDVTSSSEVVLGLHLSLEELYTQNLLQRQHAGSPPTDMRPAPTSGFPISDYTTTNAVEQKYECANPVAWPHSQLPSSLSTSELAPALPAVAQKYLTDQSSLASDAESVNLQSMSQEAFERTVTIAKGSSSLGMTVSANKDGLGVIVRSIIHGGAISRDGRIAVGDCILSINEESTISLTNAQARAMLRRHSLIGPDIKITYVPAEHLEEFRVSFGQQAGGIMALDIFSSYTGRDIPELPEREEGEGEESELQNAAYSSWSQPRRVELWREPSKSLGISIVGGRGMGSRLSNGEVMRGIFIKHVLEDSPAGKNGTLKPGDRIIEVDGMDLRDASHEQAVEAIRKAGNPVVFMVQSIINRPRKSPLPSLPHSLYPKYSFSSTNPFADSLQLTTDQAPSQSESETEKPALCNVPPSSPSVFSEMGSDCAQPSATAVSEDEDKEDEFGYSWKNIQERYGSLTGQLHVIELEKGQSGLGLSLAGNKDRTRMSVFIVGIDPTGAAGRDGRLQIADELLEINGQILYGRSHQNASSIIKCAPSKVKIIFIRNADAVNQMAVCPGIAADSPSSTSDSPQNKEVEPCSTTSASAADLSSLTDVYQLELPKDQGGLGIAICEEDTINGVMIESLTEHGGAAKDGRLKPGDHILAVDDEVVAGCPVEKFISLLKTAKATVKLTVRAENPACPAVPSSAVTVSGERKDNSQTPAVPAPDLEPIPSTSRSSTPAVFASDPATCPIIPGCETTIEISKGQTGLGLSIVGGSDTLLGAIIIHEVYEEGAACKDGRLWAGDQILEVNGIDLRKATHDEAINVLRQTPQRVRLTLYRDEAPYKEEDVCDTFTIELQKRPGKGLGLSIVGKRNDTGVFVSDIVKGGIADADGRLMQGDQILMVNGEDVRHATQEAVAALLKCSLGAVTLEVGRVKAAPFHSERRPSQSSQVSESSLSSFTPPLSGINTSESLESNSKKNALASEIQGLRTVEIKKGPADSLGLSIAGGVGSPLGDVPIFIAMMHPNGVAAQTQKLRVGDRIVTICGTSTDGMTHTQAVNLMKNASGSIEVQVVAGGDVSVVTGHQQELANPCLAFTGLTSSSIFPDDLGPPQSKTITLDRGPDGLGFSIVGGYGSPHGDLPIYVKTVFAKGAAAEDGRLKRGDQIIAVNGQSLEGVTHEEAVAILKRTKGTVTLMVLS
UniProt P46937: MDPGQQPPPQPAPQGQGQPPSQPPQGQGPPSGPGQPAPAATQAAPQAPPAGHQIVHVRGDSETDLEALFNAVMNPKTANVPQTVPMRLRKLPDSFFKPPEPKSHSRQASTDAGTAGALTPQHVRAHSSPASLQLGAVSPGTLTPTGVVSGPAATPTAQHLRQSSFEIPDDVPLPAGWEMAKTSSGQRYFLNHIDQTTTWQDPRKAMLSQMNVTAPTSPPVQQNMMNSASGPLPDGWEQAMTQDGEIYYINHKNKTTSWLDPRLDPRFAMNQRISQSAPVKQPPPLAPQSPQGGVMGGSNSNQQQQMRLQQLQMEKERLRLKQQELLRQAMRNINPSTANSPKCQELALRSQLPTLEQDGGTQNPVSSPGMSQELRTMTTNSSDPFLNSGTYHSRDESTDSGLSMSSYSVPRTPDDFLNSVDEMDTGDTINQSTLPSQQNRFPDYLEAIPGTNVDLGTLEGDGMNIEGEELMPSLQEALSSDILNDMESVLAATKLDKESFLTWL

These are yes or no findings as the source states them, for the method shown. Binding seen in cells or lysates may run through a third protein. Some entries that bind do so weakly or less than the wild type.

The target in this experiment is multiple PDZ domain protein (MPDZ) (mouse) (UniProt Q8VBX6). Briefly: co-immunoprecipitation with anti-FLAG beads, anti-MUPP1/MPDZ immunoblot. For orientation: A western blot detects proteins with antibodies after separation by electrophoresis.

“Flag-tagged YAP6SA (from UniProt P46937 1-504)”: the binding result is reported as “binds”.
